Taken from: PubChem BioAssay AID1259275 (Sanger Institute, 2017)

Test: 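Knock-downs that cut viability on their own or combined with BYL719, cetuximab or trametinib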 (primary screen)
Cell system: COLO320HSR human colorectal cancer cells
Reagents: siRNA pool against human genes
Challenge: anchor drug added one day after transfection: BYL719 at 1 µM, cetuximab at 5 µg/ml or trametinib at 10 nM; DMSO as vehicle arm
Read-out: 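Replicate-mean viability versus non-targeting pool control, robust z-score without drug, and per-drug synergy scores for BYL719 at 1 µM, cetuximab at 5 µg/ml and trametinib at 10 nM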
Scale: robust z-score, siRNA alone: higher = more viable cells; strongly negative means essential; viability, knock-down alone (DMSO): higher = more viable cells
Active means: 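a gene is called essential when its robust z-score without drug falls below -3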
Calls: active = essential (siRNA alone); inactive = no change (siRNA alone)
In all, the deposit lists 794 reagents; shown is an unselected part. Over the whole deposit, 13 (1.6%) got an active call. 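Calls mark knock-downs lethal by themselves, not drug synergy; drugs went in a day after transfection, with DMSO as vehicle.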 Viability is capped at 1. Further read-outs or replicates are left out here. The record does not give: the amount of reagent, the time to read-out.

Gene | robust z-score, siRNA alone | viability, knock-down alone (DMSO) (fraction of control) | Call
AK2 | 0.249 | 0.957 | inactive
CDC42BPG | 0.726 | 1 | inactive
STK26 | -0.198 | 0.917 | inactive
DYRK1A | 0.726 | 1 | inactive
KDR | 0.726 | 1 | inactive
CDK9 | 0.726 | 1 | inactive
PIP5K1C | 0.726 | 1 | inactive
RPS6KA6 | 0.726 | 1 | inactive
UCK2 | -0.149 | 0.921 | inactive
STK38L | -0.121 | 0.923 | inactive
PGK1 | -0.477 | 0.891 | inactive
CAMKK2 | 0.726 | 1 | inactive
TP53RK | 0.726 | 1 | inactive
CDC73 | -0.697 | 0.872 | inactive
HUS1 | 0.726 | 1 | inactive
ACVR1B | -0.94 | 0.85 | inactive
MED24 | 0.726 | 1 | inactive
BCKDK | 0.339 | 0.965 | inactive
ROCK1 | 0.726 | 1 | inactive
DAPK3 | 0.544 | 0.984 | inactive
AAK1 | -1.37 | 0.811 | inactive
DYRK1B | -0.171 | 0.919 | inactive
BMP2K | -0.792 | 0.863 | inactive
IKBKB | -0.664 | 0.875 | inactive
GALK1 | -1.44 | 0.804 | inactive
PRPS2 | 0.726 | 1 | inactive
PRKCA | 0.357 | 0.967 | inactive
TBX3 | 0.602 | 0.989 | inactive
ETNK2 | -2.67 | 0.693 | inactive
PDGFRL | 0.726 | 1 | inactive
MECOM | -0.305 | 0.907 | inactive
DGKB | -2.46 | 0.712 | inactive
PRKCE | -1.5 | 0.799 | inactive
SRC | 0.726 | 1 | inactive
PRKDC | -0.318 | 0.906 | inactive
ERBB3 | 0.583 | 0.987 | inactive
LMBR1 | 0.726 | 1 | inactive
PRKAR2B | 0.726 | 1 | inactive
PANK4 | 0.571 | 0.986 | inactive
N4BP2 | 0.726 | 1 | inactive
PRKAA1 | -0.356 | 0.902 | inactive
CIT | 0.181 | 0.951 | inactive
GUCY2D | -8.23 | 0.192 | active
NEK10 | 0.252 | 0.957 | inactive
MKNK1 | 0.0147 | 0.936 | inactive
MAGI3 | 0.726 | 1 | inactive
TCF12 | 0.726 | 1 | inactive
MSR1 | 0.435 | 0.974 | inactive
RUNX1 | -3.14 | 0.651 | active
DSTYK | 0.726 | 1 | inactive

Hits, among the entries above:
Gene | robust z-score, siRNA alone | viability, knock-down alone (DMSO) (fraction of control) | Call
GUCY2D | -8.23 | 0.192 | active
RUNX1 | -3.14 | 0.651 | active
